No constants are given. Whether binding was seen depends on the method and setting. In cells and extracts the contact can be indirect. Here binding means that the protein was enriched with, or labelled near, the bait; the list need not be complete. For some of these results: No binding means not detected with the bait.
T1: Nephrin (not stated (endogenous in glomeruli of rat or mouse)) (UniProt Q9R044)
T1 sequence: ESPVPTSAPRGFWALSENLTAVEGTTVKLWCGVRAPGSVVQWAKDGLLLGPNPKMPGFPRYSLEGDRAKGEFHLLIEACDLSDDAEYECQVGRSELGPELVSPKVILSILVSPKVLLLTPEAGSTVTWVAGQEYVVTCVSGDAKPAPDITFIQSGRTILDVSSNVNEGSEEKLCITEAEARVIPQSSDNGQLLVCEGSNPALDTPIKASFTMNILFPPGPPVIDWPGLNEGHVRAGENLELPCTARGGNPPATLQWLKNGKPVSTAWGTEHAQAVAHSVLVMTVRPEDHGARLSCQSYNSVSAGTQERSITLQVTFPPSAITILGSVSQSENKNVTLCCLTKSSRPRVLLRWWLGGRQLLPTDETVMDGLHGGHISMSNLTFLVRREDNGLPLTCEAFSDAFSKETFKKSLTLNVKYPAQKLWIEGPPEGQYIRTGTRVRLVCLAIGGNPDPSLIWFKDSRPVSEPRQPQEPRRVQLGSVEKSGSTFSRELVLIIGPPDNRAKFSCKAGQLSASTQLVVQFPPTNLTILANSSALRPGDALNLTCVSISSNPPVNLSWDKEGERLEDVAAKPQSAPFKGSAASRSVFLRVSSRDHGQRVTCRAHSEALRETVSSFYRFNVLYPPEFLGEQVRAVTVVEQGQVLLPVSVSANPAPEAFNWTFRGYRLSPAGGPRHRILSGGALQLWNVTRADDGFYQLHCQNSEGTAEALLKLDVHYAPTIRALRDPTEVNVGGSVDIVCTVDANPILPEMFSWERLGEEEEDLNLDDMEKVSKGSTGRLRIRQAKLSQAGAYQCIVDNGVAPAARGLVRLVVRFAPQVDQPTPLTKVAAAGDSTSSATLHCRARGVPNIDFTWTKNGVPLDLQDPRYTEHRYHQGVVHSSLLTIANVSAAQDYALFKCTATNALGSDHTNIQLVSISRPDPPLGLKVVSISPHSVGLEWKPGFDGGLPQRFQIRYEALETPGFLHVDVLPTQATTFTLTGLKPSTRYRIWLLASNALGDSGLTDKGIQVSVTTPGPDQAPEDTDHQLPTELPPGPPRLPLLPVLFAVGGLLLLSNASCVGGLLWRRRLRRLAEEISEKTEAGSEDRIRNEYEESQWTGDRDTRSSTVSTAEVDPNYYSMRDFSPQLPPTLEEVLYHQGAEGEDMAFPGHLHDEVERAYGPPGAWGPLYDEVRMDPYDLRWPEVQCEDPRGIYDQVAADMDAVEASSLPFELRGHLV

T2: Neph1 (not stated (endogenous in glomeruli of rat or mouse)) (UniProt Q6X936)
T2 sequence: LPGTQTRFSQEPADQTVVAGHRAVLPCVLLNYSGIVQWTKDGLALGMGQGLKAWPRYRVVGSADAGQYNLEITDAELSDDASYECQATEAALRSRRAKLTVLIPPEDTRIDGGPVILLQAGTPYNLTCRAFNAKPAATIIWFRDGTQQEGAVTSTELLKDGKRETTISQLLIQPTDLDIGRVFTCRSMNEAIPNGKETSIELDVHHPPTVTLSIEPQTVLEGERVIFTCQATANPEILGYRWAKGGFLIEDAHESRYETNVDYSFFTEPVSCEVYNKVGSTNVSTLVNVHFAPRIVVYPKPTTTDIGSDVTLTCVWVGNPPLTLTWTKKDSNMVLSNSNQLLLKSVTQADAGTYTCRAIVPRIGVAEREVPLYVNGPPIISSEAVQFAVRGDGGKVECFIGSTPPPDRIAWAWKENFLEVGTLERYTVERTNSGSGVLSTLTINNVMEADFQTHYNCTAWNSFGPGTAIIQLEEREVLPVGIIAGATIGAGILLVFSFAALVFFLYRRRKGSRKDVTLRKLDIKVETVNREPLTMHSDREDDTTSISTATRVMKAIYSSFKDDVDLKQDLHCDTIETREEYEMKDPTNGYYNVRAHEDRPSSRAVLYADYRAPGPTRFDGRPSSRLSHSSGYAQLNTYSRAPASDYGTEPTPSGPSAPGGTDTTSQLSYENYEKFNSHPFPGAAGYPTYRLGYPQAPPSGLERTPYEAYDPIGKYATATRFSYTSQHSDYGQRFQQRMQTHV


How the values were obtained:
[1] = molecular target: T1, Nephrin (not stated (endogenous in glomeruli of rat or mouse)); assay: affinity purification with mass spectrometry; three anti-Nephrin/Neph1 ABs immobilised on magnetic beads, two hours with CL-47 or CL-91 solubilisates of glomerular membrane fractions; eluates by nano-LC-MS/MS; specific: tnR >=0.2 against three target-unrelated ABs/IgG, in at least two anti-Nephrin/Neph1 APs
[2] = molecular target: T2, Neph1 (not stated (endogenous in glomeruli of rat or mouse)); assay: as above

Binder	binding [1]	binding [2]
Nephrin (protein, UniProt Q9R044 37-1252) ESPVPTSAPRGFWALSENLTAVEGTTVKLWCGVRAPGSVVQWAKDGLLLGPNPKMPGFPRYSLEGDRAKGEFHLLIEACDLSDDAEYECQVGRSELGPELVSPKVILSILVSPKVLLLTPEAGSTVTWVAGQEYVVTCVSGDAKPAPDITFIQSGRTILDVSSNVNEGSEEKLCITEAEARVIPQSSDNGQLLVCEGSNPALDTPIKASFTMNILFPPGPPVIDWPGLNEGHVRAGENLELPCTARGGNPPATLQWLKNGKPVSTAWGTEHAQAVAHSVLVMTVRPEDHGARLSCQSYNSVSAGTQERSITLQVTFPPSAITILGSVSQSENKNVTLCCLTKSSRPRVLLRWWLGGRQLLPTDETVMDGLHGGHISMSNLTFLVRREDNGLPLTCEAFSDAFSKETFKKSLTLNVKYPAQKLWIEGPPEGQYIRTGTRVRLVCLAIGGNPDPSLIWFKDSRPVSEPRQPQEPRRVQLGSVEKSGSTFSRELVLIIGPPDNRAKFSCKAGQLSASTQLVVQFPPTNLTILANSSALRPGDALNLTCVSISSNPPVNLSWDKEGERLEDVAAKPQSAPFKGSAASRSVFLRVSSRDHGQRVTCRAHSEALRETVSSFYRFNVLYPPEFLGEQVRAVTVVEQGQVLLPVSVSANPAPEAFNWTFRGYRLSPAGGPRHRILSGGALQLWNVTRADDGFYQLHCQNSEGTAEALLKLDVHYAPTIRALRDPTEVNVGGSVDIVCTVDANPILPEMFSWERLGEEEEDLNLDDMEKVSKGSTGRLRIRQAKLSQAGAYQCIVDNGVAPAARGLVRLVVRFAPQVDQPTPLTKVAAAGDSTSSATLHCRARGVPNIDFTWTKNGVPLDLQDPRYTEHRYHQGVVHSSLLTIANVSAAQDYALFKCTATNALGSDHTNIQLVSISRPDPPLGLKVVSISPHSVGLEWKPGFDGGLPQRFQIRYEALETPGFLHVDVLPTQATTFTLTGLKPSTRYRIWLLASNALGDSGLTDKGIQVSVTTPGPDQAPEDTDHQLPTELPPGPPRLPLLPVLFAVGGLLLLSNASCVGGLLWRRRLRRLAEEISEKTEAGSEDRIRNEYEESQWTGDRDTRSSTVSTAEVDPNYYSMRDFSPQLPPTLEEVLYHQGAEGEDMAFPGHLHDEVERAYGPPGAWGPLYDEVRMDPYDLRWPEVQCEDPRGIYDQVAADMDAVEASSLPFELRGHLV	–	binds
Neph1 (protein, UniProt Q6X936 48-789) LPGTQTRFSQEPADQTVVAGHRAVLPCVLLNYSGIVQWTKDGLALGMGQGLKAWPRYRVVGSADAGQYNLEITDAELSDDASYECQATEAALRSRRAKLTVLIPPEDTRIDGGPVILLQAGTPYNLTCRAFNAKPAATIIWFRDGTQQEGAVTSTELLKDGKRETTISQLLIQPTDLDIGRVFTCRSMNEAIPNGKETSIELDVHHPPTVTLSIEPQTVLEGERVIFTCQATANPEILGYRWAKGGFLIEDAHESRYETNVDYSFFTEPVSCEVYNKVGSTNVSTLVNVHFAPRIVVYPKPTTTDIGSDVTLTCVWVGNPPLTLTWTKKDSNMVLSNSNQLLLKSVTQADAGTYTCRAIVPRIGVAEREVPLYVNGPPIISSEAVQFAVRGDGGKVECFIGSTPPPDRIAWAWKENFLEVGTLERYTVERTNSGSGVLSTLTINNVMEADFQTHYNCTAWNSFGPGTAIIQLEEREVLPVGIIAGATIGAGILLVFSFAALVFFLYRRRKGSRKDVTLRKLDIKVETVNREPLTMHSDREDDTTSISTATRVMKAIYSSFKDDVDLKQDLHCDTIETREEYEMKDPTNGYYNVRAHEDRPSSRAVLYADYRAPGPTRFDGRPSSRLSHSSGYAQLNTYSRAPASDYGTEPTPSGPSAPGGTDTTSQLSYENYEKFNSHPFPGAAGYPTYRLGYPQAPPSGLERTPYEAYDPIGKYATATRFSYTSQHSDYGQRFQQRMQTHV	binds	–

Now from value to binder:

binding [1]	binding [2]	Binder
binds	binds	R-Ras (protein, UniProt D3Z8L7 1-218) MSSGAASGTGRGRPRGGGPGPRDPPPGETHKLVVVGGGGVGKSALTIQFIQSYFVSDYDPTIEDSYTKICTVDGIPARLDILDTAGQEEFGAMREQYMRAGNGFLLVFAINDRQSFIEVSKLFTQILRVKDRDDFPIVLVGNKADLETQRQVLRSEASSFSASHHMTYFEASAKLRLNVDEAFEQLVRTVRKYQEQELPPSPPSAPRKKDGRCPCVLL
binds	binds	tyrosine kinase MER (protein, UniProt P57097 19-994) GGTAEKEEEIKPDQPFSGPLPGSLPADHRPFFAPHSSGDQLSPSQTGRSHPAHTATPQMTSAASNLLPPVAFKNTIGRIVLSEHKSVKFNCSINIPNVYQETAGISWWKDGKELLGAHHSITQFYPDEEGVSIIALFSITSVQRSDNGSYICKMKVNDREVVSDPIYVEVQGLPYFTKQPESVNVTRNTAFNLTCQAVGPPEPVNIFWVQNSSRVNENPERSPSVLTVAGLTETAVFSCEAHNDKGLTVSKGVQINIKVIPSPPTEVHILNSTAHSILVSWVPGFDGYSPLQNCSIQVKEADQLSNGSVMVFNTSASPHLYEVQQLQALANYSVTVSCRNEIGWSAVSPWILASTTEGAPAVAPLNITVFLNESSNNLEIRWTKPPIKRQDGELVGYRISHVWESAGTSKELSEEVSQNGSWAQVPVQMHNATCTVRIAVITKGGIGPFSEPVDVAIPEHSRVDYAPSSTPAPGNTESMLIILGCFCGFVLMGLILYLSLAIKRRVQETKFGGAFSEEDSQLVVNYRAKKSFCRRAIELTLQSLGVSEELQNKLEDVVVDRNLLILGKVLGEGEFGSVMEGNLKQEDGTSQKVAVKTMKLDNFSLREIEEFLSEAACMKDFNHPNVIRLLGVCIELSSQGIPKPMVILPFMKYGDLHTFLLYSRIESVPKSIPLQTLLKFMVDIAQGMEYLSSRNFLHRDLAARNCMLRDDMTVCVADFGLSKKIYSGDYYRQGRIAKMPVKWIAIESLADRVYTSKSDVWAFGVTMWEIATRGMTPYPGVQNHEMYDYLLHGHRLKQPEDCLDDLYEIMYSCWSADPLDRPTFSVLRLQLEKLSESLPDAQDKESIIYINTQLLESCEGLANRSSLAGLDMNIDPDSIIASCTAGAAVSVVMAEVHENNLHEERYILNGGNEEWEDVASTPFATVTAGKDGVLPEDRLTKNGISWSHHSTLPLGSPSPDELLFADDSSGDSEVLM
–	no binding	Podocin (protein, UniProt Q8K4G9 1-383) MDSRARSSSRKTHGRGSRSSSRDDKKSKAGRGNRGRARPDAGAERQSAGRTGTREEHRAPAATVVNVDEVRSPGEEGTEVVALLESERPEEGIKPSGLGACEWLLVLSSLIFIIVTFPFSIWFCIKVVQEYERVIIFRLGHLLPGRAKGPGLFFFLPCLDTYHKVDLRLQTLEIPFHEVVTKDMFIMEIDAVCYYRMENASLLLSSLAHVSKAIQFLVQTTMKRLLAHRSLTEILLERKSIAQDVKVALDSVTCVWGIKVERTEIKDVRLPAGLQHSLAVEAEAQRQAKVRVIAAEGEKAASESLRMAAEILSGTPAAVQLRYLHTLQSLSTDKPSTVVLPLPFDMLNLLSSPSNRAQGSINYPSSPKPVEPLNPKRKDSPML
